About 310 (0.076%) of roughly 410,000 compounds were called active. Inconclusive results, whose numbers are uncertain, are shown with a selection of clear calls. Calls come from the whole dose curve; as a rule, active = well fitted activation curve with a large enough effect; inconclusive = small, poorly fitted or top-dose-only effect, or another doubt; inactive = no such curve, though single readings can be large or run the other way. Potencies beside an inconclusive call are fits to weak or partial responses and may not hold up.
What follows are molecules tested against Parathyroid hormone/parathyroid hormone-related peptide receptor (Homo sapiens) (UniProt Q03431) (assay: qHTS for PTHR1 Agonists: Primary Screen). Conditions: HEK293 GP2 PTHR1 cells, GloSensor cAMP luminescence, 1 h; activation: at 115 µM (top of the series) unless noted; series mostly up to 115 µM.
Procedure, shortened: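 HEK-293-derived GP2 cells expressing PTHR1 and a GloSensor cAMP reporter, 3,000/well, plated overnight, given luciferin plus IBMX (each 0.5 mM as added) for 1 h at 37 °C, then compound for 1 h at 37 °C. Luminescence was read after 15 min at room temperature.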
Note: nearly all actives have a fitted effect of over 55% in size.
Potency is the fitted concentration of half-maximal effect.

The chains behind the UniProt entries cited, without tags or fusion partners. Where a name states a change or a piece, a line headed by the entry shows the natural chain unless it says otherwise.
UniProt Q03431: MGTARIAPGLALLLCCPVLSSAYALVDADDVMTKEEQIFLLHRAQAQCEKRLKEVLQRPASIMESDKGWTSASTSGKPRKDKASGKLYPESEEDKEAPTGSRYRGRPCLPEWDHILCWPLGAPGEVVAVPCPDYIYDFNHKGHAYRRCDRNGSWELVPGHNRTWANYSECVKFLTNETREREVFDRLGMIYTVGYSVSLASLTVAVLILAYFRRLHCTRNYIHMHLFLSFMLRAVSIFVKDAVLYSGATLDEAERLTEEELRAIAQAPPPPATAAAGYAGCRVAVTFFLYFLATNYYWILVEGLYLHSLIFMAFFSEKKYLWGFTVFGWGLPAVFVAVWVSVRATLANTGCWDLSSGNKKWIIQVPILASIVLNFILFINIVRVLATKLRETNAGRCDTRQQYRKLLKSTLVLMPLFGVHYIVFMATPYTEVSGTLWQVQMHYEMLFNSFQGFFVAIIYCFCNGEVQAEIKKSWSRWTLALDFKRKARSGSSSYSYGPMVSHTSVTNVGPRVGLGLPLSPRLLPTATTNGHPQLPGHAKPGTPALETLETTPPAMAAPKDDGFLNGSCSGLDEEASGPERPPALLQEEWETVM

Question: Which Potency does the source give for `Cc1ccc(NC(=O)CC2SC3=NCCN3C2=O)cc1` (configuration not stated) here?
Answer: The Potency was inconclusive: 44.7 µM [activator, single point].

Question: With `O=C(CSc1ccccc1)NCc1ccc2c(c1)CCN2C(=O)c1ccc(Cl)cc1` as the molecule, how does the Potency read?
Answer: The Potency was inconclusive: 100 µM [activator, single point].

Question: For `CC(C)(C)NC(=O)CCCCCCCC(=O)NC(C)(C)C`, which Potency is on record?
Answer: Its Potency is inconclusive: 112 µM [activator, single point].

Question: Which Potency does the source give for `O=C(N/N=C\c1cn[nH]c1-c1ccc(Cl)cc1)c1cccs1` here?
Answer: The Potency was inconclusive: 141 µM [activator, single point].

Question: How did the Potency turn out when `C/[N+]([O-])=C\c1coc2ccccc2c1=O` was run?
Answer: Its Potency is inconclusive: 141 µM [activator, single point].

Question: How did the “activation” value turn out when `CCN1C(=O)C(Cc2nc3ccccc3c(=O)n2-c2ccc(OC)cc2)c2cc(C)ccc21` (configuration not stated) was run?
Answer: Its value is inactive: -35.8%.

Question: Which Potency does the source give for `CCN(CC)CCNC(=O)C(=O)NCC(c1cccnc1)N1CCN(c2ccccc2)CC1` (configuration not stated) here?
Answer: The Potency was inconclusive: 39.8 µM [activator, partial curve, poor fit].

Question: `COc1ccc(-n2c(SCC(=O)NCCCN3CCCC3=O)nnc2C(C)N2CCCCC2)cc1` (configuration not stated) was tested. Which Potency did it give?
Answer: The Potency was inconclusive: 14.1 µM [activator, partial curve].

Question: With `CCOC(=O)c1ccc(N2CCN(c3ccccc3F)CC2)c(NC(=O)Nc2ccc(Cl)c(Cl)c2)c1` as the molecule, how does the “outcome” value read?
Answer: Its value is “inactive”.

Question: With `CN(C(=O)c1ccc(NC(=O)Cc2ccc(NC(=O)C3CCN(C(=O)C4CC4)CC3)cc2)cc1)C1CCCC1` as the molecule, how does the Potency read?
Answer: Its Potency is inconclusive: 126 µM [activator, single point].

Question: With `CCO[C@H]1OC(C(=O)O)=C[C@@H](c2ccc(C(F)(F)F)cc2)[C@@H]1CCCO` as the molecule, how does the Potency read?
Answer: Its Potency is inconclusive: 22.4 µM [activator, partial curve].

Question: Which Potency does the source give for `CN1CCCN(Cc2ccccc2Br)CC1` here?
Answer: The Potency was inconclusive: 100 µM [activator, single point].

Question: Which “activation” value does the source give for `OC(c1ccc(Cl)cc1)c1ncc(-c2ccc(Oc3ccccc3)cc2)[nH]1` (configuration not stated) here?
Answer: The value was inactive: -19.8%.

Question: With `CCC1CCCCN1C(=O)/C=C/c1ccc2c(c1)OCO2` (configuration not stated) as the molecule, how does the activation read?
Answer: The activation was inconclusive: -60.9% [activator].

Question: With `Cc1nn(S(=O)(=O)c2ccccc2)c(C)c1S(=O)(=O)N1CCC(C)CC1` as the molecule, how does the Potency read?
Answer: The Potency was inconclusive: 141 µM [activator, single point].

Question: `CN(C)c1ccc(N=Cc2nc(-c3ccccc3)oc2OC(=O)c2ccccc2)cc1` was tested. Which “outcome” value did it give?
Answer: The value was “inactive”.

Question: How did the Potency turn out when `CN1CCN(C(=O)CCCOc2ccc(Cl)cc2Cl)CC1` was run?
Answer: The Potency was inconclusive: 14.1 µM [activator, partial curve].

Question: Which “activation” value does the source give for `COCCN(C(=O)COC(=O)c1cnc(C)cn1)c1c(N)n(Cc2ccccc2)c(=O)[nH]c1=O` here?
Answer: The value was inactive: -1.81%.

Question: With `O=C(Nc1cccc2ccccc12)N(CCO)C1CCS(=O)(=O)C1` (configuration not stated) as the molecule, how does the activation read?
Answer: The activation was inconclusive: 42.4% [activator].

Question: With `COc1ccccc1CN(Cc1cc2cc3c(cc2[nH]c1=O)OCCO3)Cc1nnnn1Cc1ccco1` as the molecule, how does the Potency read?
Answer: Its Potency is inconclusive: 0.891 µM [activator, full curve, poor fit].

Question: Which Potency does the source give for `CCN(CC)CCn1c(C)nc2c(sc3nc4c(cc32)COC(C)(C)C4)c1=O` here?
Answer: The Potency was inconclusive: 141 µM [activator, single point].

Question: With `CCN(CC)CCCNC(=O)c1ccc2c(c1)NC(=O)C(CS(=O)(=O)Cc1ccc(F)cc1Cl)N2` (configuration not stated) as the molecule, how does the Potency read?
Answer: The Potency was inconclusive: 25.1 µM [activator, partial curve, poor fit].

Question: For `N#C/C(=C\c1ccccc1)c1nc(-c2cc3c(ccc4ccccc43)oc2=O)cs1`, which Potency is on record?
Answer: The Potency was inconclusive: 70.8 µM [activator, partial curve, poor fit].

Question: How did the “activation” value turn out when `O=C(Cc1cccc(C(F)(F)F)c1)Nc1ccccc1N1CCCC1` was run?
Answer: The value was inactive: -84.3%.

Question: `CCNC(=O)CC1C(=O)N(c2cccc(OC)c2)C(=O)N1CCOC` (configuration not stated) was tested. Which Potency did it give?
Answer: Its Potency is inconclusive: 126 µM [activator, single point].

Question: For `CCN(CC(=O)N(CC(C)C)c1c(N)n(CC(C)C)c(=O)[nH]c1=O)Cc1nc2ccccc2c(=O)[nH]1`, which activation is on record?
Answer: The activation was inconclusive: 33.1% [activator].

Question: Which Potency does the source give for `CCN(CC)c1nc(-c2ccc(Cl)cc2)cc(C(F)(F)F)c1C#N` here?
Answer: Its Potency is inconclusive: 3.98 µM [activator, full curve, poor fit].

Question: `Cc1ccc(S(=O)(=O)NC(=O)Nc2ccc(F)cc2)cc1` was tested. Which Potency did it give?
Answer: The Potency was inconclusive: 35.5 µM [activator, partial curve, poor fit].

Question: With `COC(=O)NNC(=O)c1cccc(C)c1` as the molecule, how does the activation read?
Answer: Its activation is inconclusive: 30.8% [activator].

Question: Which “activation” value does the source give for `Cc1cc(C)c2nc(NNC(=O)c3ccc(S(=O)(=O)N4CC(C)CC(C)C4)cc3)sc2c1` (configuration not stated) here?
Answer: Its value is inactive: -38.6%.

Question: `CC1(C)Cc2c(sc(/N=C/N3CCCC3)c2C#N)C(C)(C)N1` was tested. Which Potency did it give?
Answer: The Potency was inconclusive: 17.8 µM [activator, partial curve, poor fit].

Question: How did the activation turn out when `O=C(NCCN1CCOCC1)N1CCOCC1` was run?
Answer: Its activation is inconclusive: 32.9% [activator].

Question: `CC(=O)C1=NN(c2ccc(Cl)cc2)C(c2ccc3c(c2)OCO3)N(C(C)=O)N1C` (configuration not stated) was tested. Which “activation” value did it give?
Answer: Its value is inactive: -26.1%.

Question: `Cc1ccc(CNC(=O)CCN2C(=O)C(C)Oc3ccc(C)cc32)cc1` (configuration not stated) was tested. Which Potency did it give?
Answer: The Potency was inconclusive: 10 µM [activator, partial curve, poor fit].

Question: For `CN(c1ccccc1C(=O)O)S(C)(=O)=O`, which Potency is on record?
Answer: Its Potency is inconclusive: 39.8 µM [activator, single point].

Question: Which Potency does the source give for `Cc1ccc2c(c1)c1c3n2CCN(CCC(=O)O)C3CCC1` (configuration not stated) here?
Answer: The Potency was inconclusive: 158 µM [activator, single point].

Question: How did the Potency turn out when `COC(=O)c1cc(NC(=O)CSc2nc(C)cc(=O)[nH]2)cc(C(=O)OC)c1` was run?
Answer: The Potency was inconclusive: 39.8 µM [activator, single point].

Question: Which “activation” value does the source give for `O=C(NCc1ccc(Cl)cc1)C(=O)NCC(c1cccnc1)N1CCN(c2ccccc2)CC1` (configuration not stated) here?
Answer: Its value is inactive: -24.4%.

Question: With `COC(C(=O)Nc1ccnn1C1CCN(C(=O)c2ccc(C=O)cc2)CC1)c1ccccc1` (configuration not stated) as the molecule, how does the Potency read?
Answer: The Potency was inconclusive: 39.8 µM [activator, single point].

Question: For `O=S(=O)(c1ccccc1)n1nc(-c2ccc(Cl)cc2)nc1NCc1ccc(F)cc1`, which Potency is on record?
Answer: The Potency was inconclusive: 22.4 µM [activator, single point].

Question: How did the “activation” value turn out when `O=C(CN1CCN(c2ccccn2)CC1)Nc1ccc(OCc2ccccc2)cc1` was run?
Answer: Its value is inactive: -45.6%.

Question: `CCOc1ccc(C(=O)Nc2ccccc2-c2ccccc2)cc1Cl` was tested. Which Potency did it give?
Answer: Its Potency is inconclusive: 50.1 µM [activator, single point].
